Results deposited as PubChem BioAssay AID1053208 (Peter MacCallum Cancer Centre, 2014).
This is one part, drawn at random, of about 17,000 deposited reagents. 788 of all reagents (4.7%) were called active. 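Calls rest on z-score classes alone; an extra cut-off of viability at most 70% of control was not applied to them.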 Unmarked entries are inactive.

- Purpose: 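Genes whose silencing cuts survival of bone tumour cells only with doxorubicin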 (primary screen)
- Cell system: mouse osteosarcoma cells, early-passage culture from an engineered mouse model of fibroblastic bone tumour
- Knock-down reagent: siRNA pool against mouse genes, 40 nM
- Duration: about 120 h (48 h before drug, then 72 h with drug)
- Challenge: doxorubicin 100 nM for 72 h, roughly 30-40% inhibitory dose
- Detection: 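Luminescent ATP signal taken as viability with or without 100 nM doxorubicin for 72 h; mean of two wells set against non-targeting siRNA and turned into robust z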
- Direction: viability z-score with doxorubicin and doxorubicin viability vs non-targeting: higher = more viable cells under doxorubicin; viability z-score without drug: higher = more viable cells with knock-down alone; z-score of drug to no-drug ratio: higher = less drug sensitisation by knock-down
- Hit rule: 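Called active if knock-down leaves viability unchanged without drug (z within -2 to 2) but lowers it with doxorubicin (z at or under -2)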

| target gene | combined z-score class | viability z-score with doxorubicin | viability z-score without drug | z-score of drug to no-drug ratio | doxorubicin viability vs non-targeting |
| --- | --- | --- | --- | --- | --- |
| Abca9 | no change with or without drug | 0.11 | -0.34 | 0.45 | 0.95 |
| Rnf24 | no change with or without drug | -0.45 | -1.18 | 0.45 | 0.9 |
| Mrps22 | no change with or without drug | -1.46 | -1.18 | -0.67 | 0.81 |
| Spag7 | no change with or without drug | 0 | 0.51 | -0.22 | 0.94 |
| Mcpt9 | low cell count with doxorubicin only (active) | -2.14 | -1.18 | -1.46 | 0.75 |
| Ftl1 | no change with or without drug | -0.11 | 0.17 | -0.11 | 0.93 |
| Rasgrp2 | no change with or without drug | 0 | 1.85 | -1.01 | 0.94 |
| Igfbp3 | no change with or without drug | -0.22 | -0.84 | 0.45 | 0.92 |
| 1700012A03Rik | high cell count without drug only | -0.22 | 2.02 | -1.35 | 0.92 |
| Cr1l | no change with or without drug | 0.45 | 0.67 | 0.11 | 0.98 |
| St8sia6 | no change with or without drug | 0 | -0.51 | 0.45 | 0.94 |
| Or8g51 | no change with or without drug | 1.57 | 1.18 | 0.9 | 1.08 |
| Cobl | no change with or without drug | 0 | 0 | 0.11 | 0.94 |
| Lasp1 | no change with or without drug | 0.22 | -1.18 | 1.24 | 0.96 |
| Ankrd54 | low cell count with doxorubicin only (active) | -2.36 | -0.34 | -2.25 | 0.73 |
| Rorb | no change with or without drug | -1.12 | 0 | -1.12 | 0.84 |
| Obox1 | no change with or without drug | -0.45 | 0.17 | -0.45 | 0.9 |
| Or2k2 | no change with or without drug | 1.35 | 1.85 | 0.22 | 1.06 |
| 4930486L24Rik | no change with or without drug | 0 | 0.84 | -0.45 | 0.94 |
| Zc3hc1 | high cell count with doxorubicin only | 4.16 | 1.01 | 3.6 | 1.31 |
| Panx1 | no change with or without drug | -0.11 | -1.35 | 1.01 | 0.93 |
| Prima1 | high cell count without drug only | 1.12 | 2.19 | -0.22 | 1.04 |
| Kcng3 | no change with or without drug | 0.45 | 0 | 0.56 | 0.98 |
| Adgrl3 | high cell count without drug only | -0.67 | 2.02 | -1.8 | 0.88 |
| Fv4 | high cell count without drug only | 0.9 | 2.02 | -0.34 | 1.02 |
| Abca4 | low cell count with doxorubicin only (active) | -2.59 | -0.34 | -2.47 | 0.71 |
| Cetn1 | no change with or without drug | -0.9 | 0.34 | -1.01 | 0.86 |
| Irs3 | no change with or without drug | -1.46 | -0.84 | -0.9 | 0.81 |
| Slc66a3 | high cell count without drug only | -0.34 | 2.02 | -1.46 | 0.91 |
| Stau1 | no change with or without drug | 1.35 | 1.85 | 0.22 | 1.06 |
| Tmem198b | no change with or without drug | 0 | -0.17 | 0.22 | 0.94 |
| Phospho1 | no change with or without drug | 1.57 | 0.84 | 1.12 | 1.08 |
| Oat | no change with or without drug | -0.22 | 1.18 | -0.9 | 0.92 |
| Oas1e | no change with or without drug | 1.24 | -0.17 | 1.57 | 1.05 |

Only “combined z-score class”, for 5 of the entries above:
Prima1	high cell count without drug only
Kcng3	no change with or without drug
Adgrl3	high cell count without drug only
Fv4	high cell count without drug only
Abca4	low cell count with doxorubicin only (active)
